Results on three substances are retold here after paper doi:10.1101/2021.09.14.460262 (bioRxiv, 2021).

Amino acid sequences for entries named in this document (tags omitted). A change or cut given only in a name is not applied to a line headed by its entry.
UniProt Q60932: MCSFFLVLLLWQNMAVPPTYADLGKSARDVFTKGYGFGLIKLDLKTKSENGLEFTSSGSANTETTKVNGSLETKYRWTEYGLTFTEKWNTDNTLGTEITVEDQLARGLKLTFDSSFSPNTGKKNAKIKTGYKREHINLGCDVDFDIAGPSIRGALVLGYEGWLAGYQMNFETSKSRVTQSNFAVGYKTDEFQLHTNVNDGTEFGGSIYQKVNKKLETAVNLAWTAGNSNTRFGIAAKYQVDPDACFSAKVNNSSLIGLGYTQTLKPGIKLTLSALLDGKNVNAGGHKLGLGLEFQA
UniProt P70444: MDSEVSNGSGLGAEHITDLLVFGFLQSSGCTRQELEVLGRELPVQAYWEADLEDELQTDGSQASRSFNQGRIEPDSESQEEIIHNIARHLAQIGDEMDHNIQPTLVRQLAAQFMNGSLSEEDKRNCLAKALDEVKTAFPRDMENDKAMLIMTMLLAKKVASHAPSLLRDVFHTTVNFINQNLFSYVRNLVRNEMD

The target in test [1] is VDAC1, endogenous (mouse (endogenous in HT-22 cells, primary mouse cortical neurons and mouse brain)) (UniProt Q60932). Description: co-IP.
Test [2] has the same target. Description: co-IP. The source holds these as a separate data set.
In test [3] the target is FLAG-tagged VDAC1 (UniProt Q60932). Put plainly: co-IP.
The target of test [4] is VDAC1, endogenous (mouse (endogenous in HT-22 cells, primary mouse cortical neurons and mouse brain)) (UniProt Q60932). Description: co-IP. The source holds these as a separate data set.
For test [5] the target is unchanged. Description: condition: only control tissue or ischemic cortex 2 hours after MCAO.
In test [6] the target is BID, endogenous (mouse (endogenous in HT-22 cells, primary mouse cortical neurons and mouse brain)) (UniProt P70444). Description: co-IP.
The target in test [7] is recombinant full length His6-BID (UniProt P70444). Description: pull-down.

No constants are given. Whether binding was seen depends on the method and setting. For some of these results: A result given as binding can be weak or reduced; the word gives no strength. For some of these results: In cells and extracts the contact can be indirect.

Take “BID, endogenous (from UniProt P70444 1-195)”: the binding result in test [1] is listed as “binds”; in test [2] it was “binds”; in test [3], “binds”; in test [4], “binds”; in test [5], “no binding”.

In the case of VDAC1, endogenous (from UniProt Q60932), in test [6], the binding entry is listed as “binds”.

Turning to “recombinant mVDAC1 (voltage-dependent anion channel 1) (from UniProt Q60932)”, the binding entry in test [7] is “binds”.
